Source: PubChem BioAssay AID2685 (National Center for Advancing Translational Sciences (NCATS), 2010)
Some of the results follow. These are further read-outs of the screen, such as a control signal, another cell line or another target. No call is given for them. Compounds called inactive in the main read-out are mostly missing here. Potencies come from curve fits of mixed quality, noted in brackets.

Experiment: qHTS Assay for Lipid Storage Modulators in Drosophila S3 Cells;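 on cell number change: cells counted by Cell Tracker Red CMTPX staining in the red channel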
Conditions: BODIPY lipid droplet fluorescence, 18-24 h; for cell number change: measured here: cell count max response, cells fed with added oleic acid
Summary of the method: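 Drosophila S3 cells loaded with oleic acid (400 uM, as added) and compounds at several concentrations; lipid droplets imaged by 488-nm laser-scanning cytometry, 500–530 nm intensity and object ratio to cell channel. Percent activity normalized to 20 uM Triacsin C.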

[1] = measured here: lipid fluorescence (Fed channel) AC50, cells fed with added oleic acid
[2] = measured here: cell number channel AC50, cells fed with added oleic acid

Structure (SMILES)	cell number change	AC50 [1]	AC50 [2]
O=C(Nc1cc(S(=O)(=O)N2CCOCC2)ccc1Cl)C(=O)c1c(-c2ccccc2)cc2ccccn12	21.9%	6.51 µM [rising, single point]	
Clc1ccc2c(NCc3cccs3)ncnc2c1	-11.7%	20.6 µM [falling, single point]	
O=c1cc(N2CCCCC2)c(-c2ccccc2)nn1Cc1ccccc1Cl	-8.91%		
Cc1ccc(-c2c3c(nc4sc(C(N)=O)c(N)c24)CCCC3)o1	36%	5.17 µM [rising, partial curve]	5.17 µM [rising, partial curve]
Clc1ccc(-n2ncc3c(NCC4CCCO4)ncnc32)cc1 (centres undefined)	-14.7%	20.6 µM [falling, partial curve]	
CC1=C(C(=O)OC2CCCCC2)C(c2ccc(C)o2)C2=C(CCCC2=O)N1 (centres undefined)	1.45%	0.00411 µM [rising, full curve, poor fit]	
Cc1cccc(N2CCN(C(=O)CN3C(=O)C4CC=CCC4C3=O)CC2)c1C (centres undefined)	23.1%		
Cc1cc(C)nc(N/N=C2/CCSc3ccc(F)cc32)n1	-13.2%	5.62 µM [rising, single point]	
Cc1ccsc1C(=O)Nc1cc(C(C)(C)C)nn1-c1ccccc1	33.2%	6.51 µM [rising, single point]	2.91 µM [rising, partial curve, poor fit]
COc1cc2nc(=S)n3[nH]c(CCn4nc(C)cc4C)nc3c2cc1OC	6.76%		
CC(=O)Oc1cccc(C(=O)Nc2c[nH]c(=O)[nH]c2=O)c1		0.13 µM [falling, full curve, poor fit]	
CCOC(=O)N1CCN(CC(O)COc2c(C)cccc2C)CC1 (centres undefined)	-1.02%	29.1 µM [rising, single point]	
CCN1CCN(c2ccc(NC(=O)c3cccc(F)c3)cc2Cl)CC1			0.103 µM [falling, full curve, poor fit]
CC1CCN(C(=O)CSc2nnc3c(n2)[nH]c2ccc(F)cc23)CC1		1.16 µM [rising, full curve]	
Cc1cc(C)n(-c2nc3c(c(=O)[nH]c(=O)n3C)n2Cc2ccc(F)cc2)n1	57.7%	1.64 µM [rising, partial curve]	3.66 µM [rising, partial curve, poor fit]
CCn1c2ccccc2c2nnc(NN)nc21	50%	3.26 µM [rising, partial curve, poor fit]	5.8 µM [rising, full curve]
CC(=O)Nc1ccc(C(=O)NC2CCCC2)cc1	6.12%		
O=C(N1CCOCC1)N1CCN(S(=O)(=O)c2ccc(Cl)cc2)CC1	-14.7%	2.31 µM [rising, partial curve]	
CN(C)C(=O)CCCc1nc(-c2ccc(Cl)cc2)no1	-16.2%	4.61 µM [rising, single point]	
NC(=O)c1cc(S(=O)(=O)NCc2ccc(Br)cc2)cs1	3.44%	29.1 µM [rising, single point]	
Cc1cc(N)ccc1NC(=O)CN1CCCC1	24.3%		

Ordered by number of heavy atoms (descending): part of the list above.
Structure (SMILES)	cell number change	AC50 [1]	AC50 [2]
Cc1cc(C)nc(N/N=C2/CCSc3ccc(F)cc32)n1	-13.2%	5.62 µM [rising, single point]	
NC(=O)c1cc(S(=O)(=O)NCc2ccc(Br)cc2)cs1	3.44%	29.1 µM [rising, single point]	
CCn1c2ccccc2c2nnc(NN)nc21	50%	3.26 µM [rising, partial curve, poor fit]	5.8 µM [rising, full curve]

Continued:

Structure (SMILES)	cell number change	AC50 [1]	AC50 [2]
CCOC(=O)N1CCC(NC(=O)c2cc3ccccn3n2)CC1			0.291 µM [rising, full curve, poor fit]
O=C(Cc1ccccc1)NN1C(=O)C2C(C1=O)C1C=CC2C12CC2 (centres undefined)	4.76%	5.8 µM [rising, single point]	
COc1ccc2[nH]c3c(c2c1)CCN1C(=O)N([C@@H](C)C(=O)NCCc2ccc(OC)c(OC)c2)C(=O)[C@]31C	-35.3%	1.64 µM [falling, partial curve]	0.461 µM [falling, full curve]
CCCc1cc(-c2nc(-c3ccc(C)cc3)cs2)ccn1	-38.9%		29.1 µM [falling, single point]
c1cncc(-c2cn(C[C@H]3CC[C@@H]([C@@H]4CC[C@H](Cn5cc(-c6cccnc6)nn5)O4)O3)nn2)c1		16.4 µM [falling, partial curve]	
CCOc1ccc(C(=O)NCc2cccs2)cc1	-3.78%		
Cc1ccc(-c2cc(C(=O)NCCCn3ccnc3)no2)cc1	27.1%	20.6 µM [rising, partial curve, poor fit]	
Cc1nn(-c2ccccc2)c(C)c1C(=O)OCC(=O)Nc1ccccc1C(F)(F)F	-0.125%	3.66 µM [falling, single point]	
Nc1nc(-c2ccc(Cl)cc2)c(N=Nc2ccc(S(=O)(=O)N3CCOCC3)cc2)s1	-18.7%	6.51 µM [rising, partial curve, poor fit]	3.26 µM [falling, single point]
Cn1c(SCC(=O)N2CCOCC2)nnc1-c1ccccc1	-44.8%	16.4 µM [falling, single point]	16.4 µM [falling, single point]
COc1ccc(NC(=O)/C=C/c2ccc(S(=O)(=O)N3CCOCC3)cc2)cc1	-5.92%	20.6 µM [rising, single point]	
Cc1oc(=O)c(NC(=O)c2ccccc2)cc1C(=O)c1ccccc1	-51.7%	18.4 µM [falling, partial curve]	16.4 µM [falling, partial curve]
COc1ccc(C(=O)NC2CCc3ccccc32)cc1OC1CCN(C(C)=O)CC1 (centres undefined)	1.62%		
Cc1ccc2c(c1)C=CC(C)N2C(=O)c1ccccc1 (centres undefined)	-0.521%		
O=C(NCc1ccco1)Nc1cccc([N+](=O)[O-])c1	6.95%	0.58 µM [rising, single point]	
O=C(NCc1ccccc1)C1(c2ccccc2)CCN(S(=O)(=O)c2ccccc2)CC1	14.2%	6.51 µM [rising, single point]	
Nc1nc(NCCO)nc(NCC2CCCO2)c1[N+](=O)[O-] (centres undefined)	-1.6%	0.00411 µM [rising, full curve, poor fit]	
COc1cc(OC)cc(-c2c(-c3cccs3)c3cc(-c4cccc5[nH]ccc45)ccc3n2C)c1	-17.2%	25.9 µM [rising, single point]	
Cc1ccc(NC(=O)C2=CCN(S(=O)(=O)c3ccc(F)cc3)CC2)cc1	18.1%	8.2 µM [rising, partial curve]	
Cc1ccc2c(c1)CCCN2CC(=O)N(C)c1c(N)n(Cc2ccccc2)c(=O)[nH]c1=O	-37.6%		4.11 µM [falling, full curve]
CC(Oc1cc(C(F)(F)F)cc(C(F)(F)F)c1)C(=O)NC(N)=O (centres undefined)	-26.2%		

Structure (SMILES)	cell number change	AC50 [1]	AC50 [2]
O=C(Nc1ccc(O)cc1)C1CCCO1 (centres undefined)	-64.3%	2.91 µM [falling, partial curve]	29.1 µM [falling, single point]
CCOc1cccc(NC(=O)c2cnccc2C(F)(F)F)c1	2.45%		
COc1ccc(C(=O)NN2C(=S)N(c3ccc(OC)cc3)C(=O)C2CC(N)=O)cc1 (centres undefined)	13.3%		
CCC(C(=O)N1CCc2cc(OC)c(OC)cc2C1)c1ccccc1 (centres undefined)		6.51 µM [rising, single point]	
O=C(c1cccc(Br)c1)c1cn(-c2ccccc2)nc1C(=O)c1ccccc1	-42.4%	23.1 µM [falling, partial curve]	10.3 µM [falling, partial curve]
O=C1CN(C(=O)NCC(=O)N[C@@H](C(=O)O)c2ccccc2)c2ccccc2N1	-24.9%		2.31 µM [rising, single point]
COc1cc(NC(=O)CCc2ccccc2)c(C(=O)O)cc1OC	41.9%		14.6 µM [rising, single point]
CCOc1ccc(Cc2c(Cl)nc(SC)nc2OC)cc1	-4.04%		
O=C(CSCC(=O)Nc1nc(-c2ccc3c(c2)OCO3)cs1)Nc1nccs1	-63.2%	0.731 µM [falling, full curve, poor fit]	8.2 µM [falling, partial curve]
COc1cccc(NC(=O)CN(C)C(=O)Cc2cccc3ccccc23)c1	-1.9%	0.00461 µM [rising, full curve, poor fit]	
CCCCn1c(Cn2nc(C(=O)O)c3ccccc3c2=O)nc2cc(S(N)(=O)=O)ccc21	-15.8%		
CC(=O)Nc1cccc(Cn2cccn2)c1		0.082 µM [falling, full curve, poor fit]	
Cc1ccc(Cn2c(SC(C)C(N)=O)nc3ccccc3c2=O)cc1 (centres undefined)	9.47%		
COc1cc(C)c(NC(=O)C(=S)NCCc2ccccc2)cc1C	67.4%		16.4 µM [rising, single point]
NS(=O)(=O)CCCc1ccccc1	14.2%	3.66 µM [rising, full curve]	0.58 µM [rising, partial curve, poor fit]
CCNC(=O)c1ccccc1NC(=O)c1cccc(S(=O)(=O)N2CCC(C)CC2)c1	-21.9%		
COc1ccc(N(C(=O)c2cccc([N+](=O)[O-])c2)S(=O)(=O)c2ccc3c(c2)n(C)c(=O)n3C)cc1	165%	29.1 µM [rising, partial curve]	23.1 µM [rising, single point]
Cc1ccc(C(=O)NC(=S)Nc2cccc3nsnc23)cc1	6.27%	29.1 µM [rising, single point]	
CCC1(c2ccccc2)NC(=O)N(CC(=O)Nc2ccc3c(C)cc(=O)oc3c2)C1=O (centres undefined)	11.8%	1.16 µM [rising, full curve, poor fit]	0.82 µM [rising, full curve, poor fit]
